# Measured values from patent publication US10421755B2, “Salts of aza-bicyclic di-aryl ethers and methods to make them or their precursors” (Novartis AG, priority 2011, dated 2019).
# For at least one compound, name, drawing or mass did not settle the structure. Some of these results come from one statement about several compounds together.
# Experiment: Pharmacokinetics in rats after oral administration
# Type: in vivo
# Settings: male Wistar rats (n=8), 10 mg/kg oral, Median [range]
# Description: If a salt forming agent is used (e.g. fumarate), a corresponding higher amount of the salt will be used to achieve the intended dosing.
# Both compounds were dissolved in Klucel™ (0.5% in water) and were orally administered by gavage (5 ml/kg) to conscious rats (n=8, cross-over design).
# K3-EDTA blood (˜0.2 ml) was collected by puncture of a sublingual vein under light isoflurane anesthesia at the following time points: 0.25, 0.5, 1, 2, 3, 4, 6, 8, 24 h post dose. Immediately after sampling, blood samples were put on ice and were processed to plasma by centrifugation at 4° C. within 15 min after sampling (1000 g, 10 min, 4° C.) to obtain ˜100 μl plasma/sample. All plasma samples were stored at −80° C. until analysis. Since the PK study was performed in a cross-over design, a recovery period of approximately 2 weeks took place before the next treatment/blood sampling was performed.
# The determination of compounds in plasma was done by LC-MS/MS using electrospray ionization.
compound,measurement,setting,value
"Cc1ccc(-c2ccc(O[C@H]3CN4CCC3CC4)cn2)cc1.O=C(O)/C=C/C(=O)O [Compound B, (R)-3-(6-(4-methylphenyl)-pyridin-3-yloxy)-1-aza-bicyclo[2.2.2]octane hydrogenfumarate]","Tlast (h), all rats",,24.0 [8.0-24.0]^a h
same,"Tmax (h), all rats",listed as mono-fumarate salt,0.25 to 0.5 h
